# Assay results reported in article PMC11580471.
# No constants are given. Whether binding was seen depends on the method and setting. In cells and extracts the contact can be indirect. These calls come from enrichment with a bait or labelling near it, and not all partners need be listed. Tags and fused reporters may be left off the sequences shown.
# T1: F-box and leucine-rich repeat protein 16 (Flag-FBXL16) (human) (UniProt Q8N461)
# T1 sequence: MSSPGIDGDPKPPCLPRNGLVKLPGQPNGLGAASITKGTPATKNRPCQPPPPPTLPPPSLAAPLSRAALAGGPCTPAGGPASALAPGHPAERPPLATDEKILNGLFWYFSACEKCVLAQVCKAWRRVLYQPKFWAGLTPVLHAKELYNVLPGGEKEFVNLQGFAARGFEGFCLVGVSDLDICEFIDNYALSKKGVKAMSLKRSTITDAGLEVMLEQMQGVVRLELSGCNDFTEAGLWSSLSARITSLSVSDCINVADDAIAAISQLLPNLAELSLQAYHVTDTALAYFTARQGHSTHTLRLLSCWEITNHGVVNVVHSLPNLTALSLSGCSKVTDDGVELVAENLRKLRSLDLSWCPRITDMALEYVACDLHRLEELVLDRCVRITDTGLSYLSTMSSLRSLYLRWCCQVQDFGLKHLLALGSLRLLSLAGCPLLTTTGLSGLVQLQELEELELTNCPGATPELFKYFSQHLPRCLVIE
# B1: PRDX1 (protein, UniProt Q06830 1-199)
# chain: MSSGNAKIGHPAPNFKATAVMPDGQFKDISLSDYKGKYVVFFFYPLDFTFVCPTEIIAFSDRAEEFKKLNCQVIGASVDSHFCHLAWVNTPKKQGGLGPMNIPLVSDPKRTIAQDYGVLKADEGISFRGLFIIDDKGILRQITVNDLPVGRSVDETLRLVQAFQFTDKHGEVCPAGWKPGSDTIKPDVQKSKEYFSKQK
# B2: TXN (protein, UniProt P10599 1-105)
# chain: MVKQIESKTAFQEALDAAGDKLVVVDFSATWCGPCKMIKPFFHSLSEKYSNVIFLEVDVDDCQDVASECEVKCMPTFQFFKKGQKVGEFSGANKEKLEATINELV
# B3: USP17L12 (protein, UniProt C9JPN9 1-530)
# chain: MEEDSLYLGGEWQFNHFSKLTSSRPDAAFAEIQRTSLPEKSPLSCETRVDLCDDLAPVARQLAPREKLPLSNRRPAAVGAGLQNMGNTCYVNASLQCLTYTPPLANYMLSREHSQTCHRHKGCMLCTMQAHITRALHNPGHVIQPSQALAAGFHRGKQEDAHEFLMFTVDAMKKACLPGHKQVDHHSKDTTLIHQIFGGYWRSQIKCLHCHGISDTFDPYLDIALDIQAAQSVQQALEQLVKPEELNGENAYHCGVCLQRAPASKMLTLLTSAKVLILVLKRFSDVTGNKIAKNVQYPECLDMQPYMSQPNTGPLVYVLYAVLVHAGWSCHNGHYFSYVKAQEGQWYKMDDAEVTASSITSVLSQQAYVLFYIQKSEWERHSESVSRGREPRALGAEDTDRRATQGELKRDHPCLQAPELDEHLVERATQESTLDHWKFLQEQNKTKPEFNVRKVEGTLPPDVLVIHQSKYKCGMKNHHPEQQSSLLKLSSTTPTHQESMNTGTLASLRGRARRSKGKNKHSKRALLVCQ
# B4: USP17L11 (protein, UniProt C9JVI0 1-530)
# chain: MEDDSLYLGGEWQFNHFSKLTSSRPDAAFAEIQRTSLPEKSPLSCETRVDLCDDLAPVARQLAPREKLPLSSRRPAAVGAGLQNMGNTCYVNASLQCLTYTPPLANYMLSREHSQTCHRHKGCMLCTMQAHITRALHNPGHVIQPSQALAAGFHRGKQEDAHEFLMFTVDAMKKACLPGHKQVDHHSKDTTLIHQIFGGYWRSQIKCLHCHGISDTFDPYLDIALDIQAAQSVQQALEQLVKPEELNGENAYHCGVCLQRAPASKTLTLHTSAKVLILVLKRFSDVTGNKIAKNVQYPECLDMQPYMSQTNTGPLVYVLYAVLVHAGWSCHNGHYFSYVKAQEGQWYKMDDAEVTASSITSVLSQQAYVLFYIQKSEWERHSESVSRGREPRALGAEDTDRRATQGELKRDHPCLQAPELDEHLVERATQESTLDHWKFLQEQNKTKPEFNVRKVEGTLPPDVLVIHQSKYKCGMKNHHPEQQSSLLNLSSTTPTHQESMNTGTLASLRGRARRSKGKNKHSKRALLVCQ
# B5: USP17L10 (protein, UniProt C9JJH3 1-530)
# chain: MEDDSLYLGGEWQFNHFSKLTSSRPDAAFAEIQRTSLPEKSPLSCETRVDLCDDLAPVARQLAPREKPPLSSRRPAAVGAGLQNMGNTCYVNASLQCLTYKPPLANYMLFREHSQTCHRHKGCMLCTMQAHITRALHIPGHVIQPSQALAAGFHRGKQEDAHEFLMFTVDAMRKACLPGHKQVDRHSKDTTLIHQIFGGYWRSQIKCLHCHGISDTFDPYLDIALDIQAAQSVQQALEQLVKPEELNGENAYHCGVCLQRAPASKTLTLHNSAKVLILVLKRFPDVTGNKIAKNVQYPECLDMQPYMSQQNTGPLVYVLYAVLVHAGWSCHNGHYSSYVKAQEGQWYKMDDAEVTASSITSVLSQQAYVLFYIQKSEWERHSESVSRGREPRALGVEDTDRRATQGELKRDHPCLQAPELDEHLVERATQESTLDHWKFLQEQNKTKPEFNVRRVEGTVPPDVLVIHQSKYKCRMKNHHPEQQSSLLNLSSTTPTDQESMNTGTLASLRGRTRRSKGKNKHSKRALLVCQ
# B6: USP17L13 (protein, UniProt C9JLJ4 1-530)
# chain: MEEDSLYLGGEWQFNHFSKLTSSRLDAAFAEIQRTSLPEKSPLSCETRVDLCDDLVPEARQLAPREKLPLSSRRPAAVGAGLQNMGNTCYVNASLQCLTYTPPLANYMLSREHSQTCHRHKGCMLCTMQAHITRALHNPGHVIQPSQALAAGFHRGKQEDAHEFLMFTVDAMKKACLPGHKQVDHPSKDTTLIHQIFGGYWRSQIKCLHCHGISDTFDPYLDIALDIQAAQSVQQALEQLVKPEELNGENAYHCGVCLQRAPASKTLTLHTSAKVLILVLKRFSDVTGNKIAKNVQYPECLDMQPYMSQQNTGPLVYVLYAVLVHAGWSCHNGHYFSYVKAQEGQWYKMDDAEVTAASITSVLSQQAYVLFYIQKSEWERHSESVSRGREPRALGAEDTDRRATQGELKRDHPCLQAPELDEHLVERATQESTLDRWKFLQEQNKTKPEFNVRKVEGTLPPDVLVIHQSKYKCGMKNHHPEQQSSLLNLSSSTPTHQESMNTGTLASLRGRARRSKGKNKHSKRALLVCQ
# B7: USP17L21 (protein, UniProt D6R901 1-530)
# chain: MEEDSLYLGGEWQFNHFSKLTSSRPDAAFAEIQRTSLPEKSPLSCETRVDLCDDLAPVARQLAPREKLPLSNRRPAAVGAGLQNMGNTCYVNASLQCLTYTPPLANYMLSREHSQTCHRHKGCMLCTMQAHITRALHNPGHVIQPSQALAAGFHRGKQEDAHEFLMFTVDAMKKACLPGHKQVDHHSKDTTLIHQIFGGYWRSQIKCLHCHGISDTFDPYLDIALDIQAAQSVQQALEQLVKPEELNGENAYHCGVCLQRAPASKMLTLLTSAKVLILVLKRFSDVTGNKIAKNVQYPECLDMQPYMSQPNTGPLVYVLYAVLVHAGWSCHNGHYFSYVKAQEGQWYKMDDAEVTASSITSVLSQQAYVLFYIQKSEWERHSESVSRGREPRALGAEDTDRRATQGELKRDHPCLQAPELDEHLVERATQESTLDHWKFLQEQNKTKPEFNVRKVEGTLPPDVLVIHQSKYKCGMKNHHPEQQSSLLNLSSSTPTHQESMNTGTLASLRGRARRSKGKNKHSKRALLVCQ
# B8: USP17L17 (protein, UniProt D6RBQ6 1-530)
# chain: MEDDSLYLGGEWQFNHFSKLTSSRPDAAFAEIQRTSLPEKSPLSCETRVDLCDDLAPVARQLAPREKLPLSSRRPAAVGAGLQNMGNTCYVNASLQCLTYTPPLANYMLSREHSQTCHRHKGCMLCTMQAHITRALHNPGHVIQPSQALAAGFHRGKQEDAHEFLMFTVDAMKKACLPGHKQVDHHSKDTTLIHQIFGGYWRSQIKCLHCHGISDTFDPYLDIALDIQAAQSVQQALEQLVKPEELNGENAYHCGVCLQRAPASKTLTLHTSAKVLILVLKRFSDVTGNKIAKNVQYPECLDMQPYMSQQNTGPLVYVLYAVLVHAGWSCHNGHYFSYVKAQEGQWYKMDDAEVTAASITSVLSQQAYVLFYIQKSEWERHSESVSRGREPRALGAEDTDRRATQGELKRDHPCLQAPELDEHLVERATQESTLDHWKFLQEQNKTKPEFNVRKVEGTLPPDVLVIHQSKYKCGMKNHHPEQQSSLLNLSSSTPTHQESMNTGTLASLRGRARRSKGKNKHSKRALLVCQ
# B9: USP17L22 (protein, UniProt D6RA61 1-530)
# chain: MEDDSLYLGGEWQFNHFSKLTSSRPDAAFAEIQRTSLPEKSPLSCETRVDLCDDLAPVARQLAPREKLPLSSRRPAAVGAGLQNMGNTCYVNASLQCLTYTPPLANYMLSREHSQTCHRHKGCMLCTMQAHITRALHNPGHVIQPSQALAAGFHRGKQEDAHEFLMFTVDAMKKACLPGHKQVDHHSKDTTLIHQIFGGYWRSQIKCLHCHGISDTFDPYLDIALDIQAAQSVQQALEQLVKPEELNGENAYHCGVCLQRAPASKTLTLHTSAKVLILVLKRFSDVTGNKIAKNVQYPECLDMQPYMSQQNTGPLVYVLYAVLVHAGWSCHNGHYFSYVKAQEGQWYKMDDAEVTASSITSVLSQQAYVLFYIQKSEWERHSESVSRGREPRALGAEDTDRRATQGELKRDHPCLQAPELDEHLVERATQESTLDHWKFLQEQNKTKPEFNVRKVEGTLPPDVLVIHQSKYKCGMKNHHPEQQSSLLKLSSTTPTHQESMNTGTLASLRGRARRSKGKNKHSKRALLVCQ
# Biological target: T1, F-box and leucine-rich repeat protein 16 (Flag-FBXL16) (human)
# Assay: affinity purification with mass spectrometry; 0 to 2 µg Flag-FBXL16 plasmid transfected into HEK293 cells; precipitated with Flag magnetic beads, eluted with glycine (0.1 M, pH 2.8), neutralised with 0.5 M Tris-HCl; trypsin digestion and mass spectrometry
row,Binder,binding
1,B1,binds
2,B2,binds
3,B3,binds
4,B4,binds
5,B5,binds
6,B6,binds
7,B7,binds
8,B8,binds
9,B9,binds
